Experimental data as given in patent US5189212A, “Triarylethylene carboxylic acids with estrogenic activity” (University of Georgia Research Foundation, Inc., priority 1990, dated 1993).

Test system: UDP glucuronyl transferase
Assay: Rat liver microsomal glucuronidation

## Oc1ccc(Br)cc1 [p-Bromophenol]
  Vmax: 15.6 nmols/mg-min
